Here are results for one compound from US10329304B2, “Compounds and methods for inhibition of hedgehog signaling and phosphodiesterase” (Vanderbilt University, priority 2014, dated 2019).

Sequences of proteins named here, by UniProt entry; tags and fusion partners are left off. Residues count along the entry.
UniProt Q08499, 303-809: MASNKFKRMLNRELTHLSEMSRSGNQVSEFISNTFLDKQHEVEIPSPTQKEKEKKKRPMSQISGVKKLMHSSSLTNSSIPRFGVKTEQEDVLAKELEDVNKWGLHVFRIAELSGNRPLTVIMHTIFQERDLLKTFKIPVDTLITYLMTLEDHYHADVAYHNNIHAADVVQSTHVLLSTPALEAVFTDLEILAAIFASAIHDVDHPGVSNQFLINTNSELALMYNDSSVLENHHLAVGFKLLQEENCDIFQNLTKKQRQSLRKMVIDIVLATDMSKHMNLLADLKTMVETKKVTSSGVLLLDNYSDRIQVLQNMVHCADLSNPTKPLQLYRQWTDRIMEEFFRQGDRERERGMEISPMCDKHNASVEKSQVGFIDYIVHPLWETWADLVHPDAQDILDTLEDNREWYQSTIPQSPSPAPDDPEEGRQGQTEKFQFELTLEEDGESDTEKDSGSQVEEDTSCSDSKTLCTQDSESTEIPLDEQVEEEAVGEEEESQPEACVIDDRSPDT
UniProt Q08499, 1-673 isoform 2: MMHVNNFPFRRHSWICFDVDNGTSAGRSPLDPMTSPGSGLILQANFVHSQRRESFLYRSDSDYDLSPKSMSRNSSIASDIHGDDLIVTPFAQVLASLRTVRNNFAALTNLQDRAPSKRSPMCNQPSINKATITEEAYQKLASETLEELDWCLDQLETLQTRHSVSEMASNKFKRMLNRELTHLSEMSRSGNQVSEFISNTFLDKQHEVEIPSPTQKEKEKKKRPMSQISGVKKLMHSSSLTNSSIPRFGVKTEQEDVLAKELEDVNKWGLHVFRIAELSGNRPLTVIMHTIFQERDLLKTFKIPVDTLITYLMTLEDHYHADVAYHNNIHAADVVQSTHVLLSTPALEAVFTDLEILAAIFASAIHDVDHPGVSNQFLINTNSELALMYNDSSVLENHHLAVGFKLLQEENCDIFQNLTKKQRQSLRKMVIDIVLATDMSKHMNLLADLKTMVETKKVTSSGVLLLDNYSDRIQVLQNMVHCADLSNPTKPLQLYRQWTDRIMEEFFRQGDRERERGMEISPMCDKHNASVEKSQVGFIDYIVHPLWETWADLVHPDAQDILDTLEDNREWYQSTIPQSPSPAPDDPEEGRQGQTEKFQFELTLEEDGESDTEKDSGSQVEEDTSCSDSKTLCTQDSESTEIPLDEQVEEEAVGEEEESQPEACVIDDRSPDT

The match of structure and compound is tentative.

Assay [1] concerns the target PDE4D2 (Homo sapiens, UniProt Q08499). As to the kind of experiment: In vitro PDE assay. Particulars: read-out: PDE4D2 IC50; Table 9A.
Assay [2] addresses PDE4D3 (Homo sapiens, UniProt Q08499). As to the kind of experiment: In vitro PDE assay. Particulars: read-out: PDE4D3 IC50; Table 9A.
For assay [3], the system named is B16F11. Briefly: Cell viability assay (CellTiter-Blue, 72 hr). Particulars: read-out: CELL KILLING EC50 (μM) Melanoma B16F10; Table 10. A general note: Alamar Blue is a resazurin reagent that responds to reducing activity.
For assay [4], the system named is DU145. Briefly: Cell viability assay (CellTiter-Blue, 72 hr). Particulars: read-out: CELL KILLING EC50 (μM) Prostate DU145; human cancer cells.
Assay [5] concerns DaoY. Briefly: Cell viability assay (CellTiter-Blue, 72 hr). To be noted: read-out: CELL KILLING EC50 (μM) Medulloblastoma DaoY; human cancer cells.
In assay [6] the test system is HCT116. Briefly: Cell viability assay (CellTiter-Blue, 72 hr). Particulars: read-out: CELL KILLING EC50 (μM) Colon HTC116; human cancer cells.
Assay [7] has as its system HeLa. Briefly: Cell viability assay (CellTiter-Blue, 72 hr). Particulars: read-out: CELL KILLING EC50 (μM) Cervix HeLa; human cancer cells.
The subject of assay [8] is MCF7. Briefly: Cell viability assay (CellTiter-Blue, 72 hr). Particulars: read-out: CELL KILLING EC50 (μM) Breast MCF7; human cancer cells.
Assay [9] deals with MDA-MB- 231. Briefly: Cell viability assay (CellTiter-Blue, 72 hr). Particulars: read-out: CELL KILLING EC50 (μM) Breast MDA-231; human cancer cells.
Assay [10] deals with PC3. As to the kind of experiment: Cell viability assay (CellTiter-Blue, 72 hr). Particulars: read-out: CELL KILLING EC50 (μM) Prostate PCx3; human cancer cells.
Assay [11] deals with RKO. Briefly: Cell viability assay (CellTiter-Blue, 72 hr). Particulars: read-out: CELL KILLING EC50 (μM) Colon RKO; human cancer cells.
The test system of assay [12] is RWGT2. Briefly: Cell viability assay (CellTiter-Blue, 72 hr). Particulars: read-out: CELL KILLING EC50 (μM) Lung Squam, NSCLC RWGT2; human cancer cells.
Assay [13] relates to SW480. As to the kind of experiment: Cell viability assay (CellTiter-Blue, 72 hr). Particulars: read-out: CELL KILLING EC50 (μM) Colon SW480; human cancer cells.
Assay [14] concerns Gli1 mRNA. Briefly: Hh % Inh.: SAG-induced Gli1 expression in C3H10T½ cells (qPCR). Particulars: 10 pM [sic]; SAG-induced (100 nM), 24 hours.
For assay [15], the system named is Hedgehog signaling (TM3-Gli-Luc). Briefly: TM3-Gli-Luc luciferase reporter assay stimulated with 20 nM SAG. The class given is cell-based. A general note: In a reporter assay the amount or activity of a reporter protein is the signal.
For assay [16], the system named is H82. Briefly: Cell killing EC50 in H82 lung cancer cells (Table 10). To be noted: human cancer cells.

In general, IC50 refers to the concentration needed to halve the response being measured. As for `C=C(C)Cn1c(SCC(=O)N2CCN(C)CC2)nc2sc3c(c2c1=O)CCCC3` [Formula (7)], the IC50 in assay [1] was 5.6 µM; in assay [2], 8.3 µM. The EC50 stood at 25.3 µM in [3]; 40.3 µM in assay [4]; 44.9 µM in assay [5]; 66.4 µM in [6]; 78.6 µM in [7]; 74.6 µM in [8]. Also, the EC50 came to 17.3 µM in [9]; 105 µM in [10]; 29.2 µM in [11]; 59.5 µM in assay [12]; 4.68 µM in [13]; 17.8 µM in assay [15] (read-out: TM3 G8 Luciferase EC 50, Table 9A). Also, the “C3H10T1/2 qPCR, Gh1 mRNA % Inh., 10 pM” value in assay [14] is listed as 36.9%. Further, the “TM3 G8 Luciferase % Inh., 2 pM” value in [15] is recorded as 33.1%. In addition, the “TM3 G8 Luciferase % Inh., 0.5 pM” value in assay [15] (0.5 pM as printed) is given as 21.5%. The “CELL KILLING EC50 (μM) Lung H82” value in [16] is “UnCh”.
